This is an account of results in PubChem BioAssay AID493014 (National Center for Advancing Translational Sciences (NCATS), 2011).

A short description of this assay: qHTS Assay to Find Inhibitors of Chronic Active B-Cell Receptor Signaling. To be noted: ABC-DLBCL IkBa-CBG/CBR reporter, luminescence ratio (green luciferase fused to IkBa over red control in TMD8 lymphoma cells), 4 h. The method in brief:
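Compounds up to 46 uM were incubated four hours with TMD8 cells whose green CBG68 luciferase is fused to IkappaBalpha; red CBR luminescence normalised the signal, and concentration-effect curves were fitted to fusion, red and ratio data.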
A general note: In qHTS, concentration-response curves come from the screen itself.

Where [1] appears, read: measured here: CBR red luminescence, cell number.
Where [2] appears, read: measured here: IkBa-CBG green luminescence.

The other results are listed elsewhere or left out. The main result of the screen is listed elsewhere. These columns were measured beside it and carry no call. Compounds called inactive in the main read-out are mostly missing here. Words in brackets tell the shape of the fitted curve; partial curves, single points and poor fits give uncertain potencies.

With `CCOc1cc(/C=C(/C#N)c2nc3ccccc3[nH]2)ccc1OCc1ccc(C(=O)O)o1`, the AC50 (as a rule, the midpoint of the concentration-response curve, whichever way the signal moves) under setting [1] was 0.447 µM [falling, full curve, poor fit].
On the same count and under the same terms, the same measure for `Clc1ccc2c(N3CCOCC3)ccnc2c1`: 35.5 µM [rising, single point].
For `C/C=C\C=C/C(=O)Nc1cccc(C2=NOC3(C2)C[C@@H](C(N)=O)N(C(=O)/C=C/CC)C3)c1` (stereo not given in full), the half-maximal activity concentration (AC50) under setting [1] is 7.08 µM [falling, partial curve, poor fit].
Consider `O=C(OCc1c(-c2ccccc2)ncc2ccccc12)N1CCOCC1`, for which, under setting [1], the AC50 is 0.082 µM [rising, full curve, poor fit].
For the compound `COc1ccc2nc(NC(=O)c3cnccn3)sc2c1`, the concentration at half-maximal activity (AC50) under setting [1] was 8.2 µM [falling, partial curve].
Still for that read-out and setting: the same measure for `COc1ccc(N(CC(=O)Nc2ccc3c(c2)OCCO3)S(=O)(=O)c2c(C)nn(C)c2C)cc1`: 1.26 µM [falling, full curve, poor fit]; for `COc1cccc(NC(=O)CSc2nc3c(c(=O)n2C)SC(C)C3)c1` (stereo not given): 13 µM [falling, partial curve, poor fit].
Same read-out and setting: the same measure for `CCc1nc(N)c(C#N)c(-c2ccc(F)cc2)c1C`: 23.1 µM [falling, single point]; for `O=C1Nc2ccccc2Oc2cc(Oc3ccc(Cl)cc3)ccc21`: 0.501 µM [rising, full curve, poor fit]; for `O=C(CN1N=C(c2ccc(Cl)cc2)CCC1=O)NCc1ccc(F)cc1`: 0.224 µM [falling, full curve].
On the same count and under the same terms, for `Cc1ccsc1C(=O)NNC(=O)c1ccncc1` the value was 16.4 µM [falling, single point]; for `O=C(c1c[nH]c2ccccc12)C(F)(F)F`, 22.4 µM [rising, single point]; for `CCN(Cc1ccccc1)S(=O)(=O)c1ccc(C(=O)Nc2nnc(C)o2)cc1`, 11.2 µM [rising, partial curve].
As to `O=C(CSc1nnnn1-c1ccc(O)cc1)Nc1cccc(S(=O)(=O)N2CCCC2)c1`, the AC50 under setting [1] is 25.9 µM [falling, single point].
Still for that read-out and setting: the same measure for `CC(=O)c1ccc(COC(=O)c2cc3ccccc3oc2=O)cc1`: 3.55 µM [rising, partial curve, poor fit]; for `CC1=C(C)/C(=N\OS(=O)(=O)c2ccc(C)cc2)C=CC1=O`: 29.1 µM [falling, single point]; for `CCOc1ccc(C(=O)CSCCC(=O)O)cc1`: 3.55 µM [falling, partial curve, poor fit].
On the same count and under the same terms, for `COc1ccccc1NC(=O)Cc1csc(NC(=S)Nc2ccc(C)cc2)n1` the value was 11.2 µM [falling, partial curve, poor fit]; for `CC1(C)C(C=C(Cl)Cl)C1C(=O)N(Cc1ccc(Cl)cc1)C1CCS(=O)(=O)C1` (stereo not given), 29.1 µM [falling, single point].
On the same count and under the same terms, the same measure for `O=C(NC(=S)Nc1ncccn1)c1ccccc1Br`: 12.6 µM [falling, partial curve].
As for `CCc1ccc(NC(=O)c2ccc(F)c(S(=O)(=O)NCC3COc4ccccc4O3)c2)cc1` (stereo not given), under setting [1], the half-maximal activity concentration (AC50) is 13 µM [falling, partial curve, poor fit].
Take `CN1C(C(=O)Nc2ccc(F)cc2F)=CC(c2cccs2)=NS1(=O)=O`: the half-maximal activity concentration (AC50) under setting [1] was 11.2 µM [falling, partial curve, poor fit].
Same read-out and setting: the same measure for `Cc1cccc(NC(=S)N/N=C2/CCCCc3ccccc32)c1`: 11.6 µM [rising, partial curve].
In the case of `COc1cc(/C=N/NC(=O)CN2CCCCC2)ccc1OCc1ccc(Br)cc1`, under setting [1], the AC50 was 8.2 µM [rising, partial curve].
Same read-out and setting: for `O=C(NC1CCCCC1)c1cc(-c2ccccc2Cl)on1` the value was 3.98 µM [falling, full curve]; for `CC1O[C@H](OC2C(COC3OC(CO)C(O)[C@H](O)C3O)OC(OC3CC[C@]4(C)C(CC[C@@]5(C)[C@@H]4C=C[C@]46OC[C@@]7(CCC(C)(C)C[C@H]74)C(O)C[C@@]56C)C3(C)C)C(O)C2O)C(O)C(O)C1O` (stereo not given in full), 0.146 µM [rising, full curve, poor fit]; for `Cc1cccc(NC(=O)C2CCCN2C(=O)Oc2ccccc2)c1` (stereo not given), 29.1 µM [falling, single point].
On the same count and under the same terms, the same measure for `COC(=O)[C@H](Cc1ccccc1)NC(=O)NCc1ccccc1OC`: 20.6 µM [rising, single point].
As to `CCOCCN1CCN(c2c(CC)c(C)nc3cc(-c4cc(OC)cc(OC)c4)nn23)CC1`, the AC50 by setting is: under setting [1], 14.6 µM [falling, partial curve]; under setting [2], 2.31 µM [falling, partial curve, poor fit].
With `CCC(C(=O)NCCC(C)C)n1ccc2cc(S(=O)(=O)N3CCCCC3)ccc21` (stereo not given), the half-maximal activity concentration (AC50) under setting [1] is 35.5 µM [falling, single point].
On the same count and under the same terms, for `O=C1CSC(=S)N1c1cccc(O)c1` the value was 20 µM [falling, single point]; for `COc1ccccc1NS(=O)(=O)c1cc(C(=O)NCC(c2ccc(F)cc2)N2CCOCC2)ccc1C` (stereo not given), 4.61 µM [falling, full curve].
Consider `O=C(c1cc(-c2ccc(F)cc2)on1)N1CCCc2ccccc21`, for which the AC50 under setting [1] is 10 µM [falling, partial curve, poor fit].
On the same count and under the same terms, the same measure for `CCOC(=O)C1(CC2CCCCO2)CCN(Cc2cc3ccccc3[nH]2)CC1` (stereo not given): 1.26 µM [falling, partial curve, poor fit]; for `COC(=O)c1ccccc1NC(=O)CN(Cc1ccccc1)S(C)(=O)=O`: 29.1 µM [rising, single point].
The same measure, in the same setting: the same measure for `C/C(=N/NC(=O)c1ccc(C)s1)c1cccc(NC(=O)COc2ccc(Cl)cc2Cl)c1`: 0.651 µM [rising, full curve, poor fit]; for `CCCNC(=O)c1ccc2c(=O)c(O)c(C)[nH]c2c1`: 35.5 µM [rising, single point]; for `COC(=O)c1sc2nc[nH]c(=O)c2c1C`: 1.3 µM [falling, partial curve, poor fit].
As for `CC(C)(C)OC(=O)NCCCCCNC(=O)c1[nH]cnc1C(=O)Nc1nccs1`, the AC50 under setting [2] was 1.46 µM [rising, full curve, poor fit].
With `Cn1ccs/c1=N\S(=O)(=O)c1ccc(F)cc1`, under setting [1], the AC50 was 0.0731 µM [falling, full curve, poor fit].
As for `Cc1ccccc1CSCCNC(=S)Nc1ccccc1`, under setting [1], the AC50 is 12.6 µM [rising, single point].
With `Cc1cccc(Oc2c([N+](=O)[O-])c(=O)n(C)c3ccccc23)c1`, the concentration at half-maximal activity (AC50) by setting is: under setting [1], 35.5 µM [rising, single point]; under setting [2], 35.5 µM [falling, single point].
Consider `Cn1c(SCC(=O)NCC2CCCO2)ncc(C(=O)Nc2ccccc2)c1=O` (stereo not given), for which, under setting [1], the half-maximal activity concentration (AC50) is 2.59 µM [falling, full curve, poor fit].
For the compound `O=C(CC(Sc1ccc(Br)cc1)C(=O)O)c1ccc(Br)cc1` (stereo not given), the AC50 under setting [1] is 12.6 µM [falling, partial curve].
Same read-out and setting: for `O=C(Nc1ccncc1)c1ccc2ccccc2c1` the value was 0.794 µM [falling, full curve, poor fit].
The same measure, in the same setting: for `CN=C(Nc1cccc(Cl)c1)SC1CC(=O)N(c2ccc(OC)cc2)C1=O` (stereo not given) the value was 0.794 µM [rising, partial curve, poor fit].
Still for that read-out and setting: the same measure for `Cn1c(SCC(=O)NNC(=S)Nc2ccccc2)nnc1-c1ccccc1`: 1.41 µM [rising, partial curve, poor fit]; for `N#C/C(=C/c1ccc(N2CCOCC2)o1)C(=O)Nc1ccccc1`: 3.98 µM [falling, partial curve]; for `CC1Cc2ccccc2N1C(=O)CN1C(=O)C(=O)N(Cc2ccccc2)C1=O` (stereo not given): 0.164 µM [falling, full curve, poor fit].
For the compound `C[C@@H]1COC(=O)[C@@H](CC(=O)OC(C)(C)C)C/C=C\C[C@@H](CC(=O)N[C@@H](CO)Cc2ccccc2)C(=O)N1`, under setting [1], the concentration at half-maximal activity (AC50) was 20.6 µM [rising, partial curve, poor fit].
On the same count and under the same terms, for `O=C(CP(=O)(c1ccccc1)c1ccccc1)Nc1cccc(CP(=O)(c2ccccc2)c2ccccc2)c1` the value was 25.1 µM [falling, single point]; for `Cc1cccc(NC(=O)CSc2nc3c([nH]c4ccccc43)c(=O)n2C)c1`, 0.251 µM [falling, full curve, poor fit].
On the same count and under the same terms, the same measure for `Cc1ccc(CN(C(=O)COc2ccc(C)c(C)c2)C2CCS(=O)(=O)C2)o1` (stereo not given): 17.8 µM [falling, single point]; for `CC(=O)Nc1sc(N/N=C\c2ccco2)nc1-c1cccs1`: 18.4 µM [falling, single point]; for `O=C(OCc1cncs1)c1ccccc1Cl`: 35.5 µM [rising, partial curve, poor fit].
Still for that read-out and setting: the same measure for `CC1CCCC(C)N1C(=O)CSc1ccc(-c2ccc3c(c2)OCCO3)nn1` (stereo not given): 14.1 µM [falling, partial curve, poor fit].
`CCN(CC)CCNC(=O)c1ccc2c(c1NCCO)C(=O)c1ccccc1C2=O`: under setting [2], the half-maximal activity concentration (AC50) is 7.08 µM [rising, partial curve, poor fit].
With `O=c1[nH]c(-c2ccccn2)nc2sc(-c3ccccc3)cc12`, the AC50 is 3.55 µM [falling, full curve, poor fit] under setting [1] and 2.82 µM [falling, full curve] under setting [2].
Regarding `COc1ccc(NC(=O)c2cn(-c3ccccc3)nc2SC)cc1`, under setting [1], the concentration at half-maximal activity (AC50) was 5.62 µM [falling, full curve, poor fit].
Still for that read-out and setting: for `O=C(NCCn1cc(SCc2ccc(F)cc2)c2ccccc21)c1ccccc1F` the value was 29.1 µM [falling, single point].
`C/C(=N\NC(=S)NC1CCCCC1)c1ccc(O)cc1`: the AC50 reads like this: under setting [1], 35.5 µM [falling, single point]; under setting [2], 25.1 µM [falling, single point].
